# In all, about 59,000 compounds went through this assay and about 35 (0.06%) were called active. Inconclusive means that the source gave no clear call. Such entries were picked first, then a sample of the others. No stated cut-off is given here; in the data, active means max dye-equivalent concentration above about 10 nM; inconclusive means between about 1.1 nM and that limit; inactive means weaker than that.
# Test: qHTS Assay for Spectroscopic Profiling in Texas Red Spectral Region
# Conditions: Compound fluorescence, Texas Red channel, 547/618 nm; active compounds read high
# Method in brief: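 Pin-transferred compounds and Texas Red standards go into 100 mM Tris buffer, pH 8.0. After 15 min at room temperature, plates are imaged with 547/618 nm filters. Each value is a dye-equivalent concentration derived from the per-plate dye curve.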
row,SMILES,max dye-equivalent concentration
1,Cc1ccc2c(c1)nnn2C1CCN(CC(=O)Nc2ccccc2N2CCOCC2)CC1,inconclusive: 2.1 nM
2,COc1ccc(N(C(C)C(=O)NC2CCCCCC2)S(C)(=O)=O)cc1 (stereo unspecified),inconclusive: 2 nM
3,COc1cc(-c2cc(C(=O)O)c3c(OC)c(OC)c(OC)cc3n2)ccc1O,inconclusive: 1.1 nM
4,COC(=O)C1=C(C)Nc2nnnn2C1c1ccco1 (stereo unspecified),inconclusive: 1.5 nM
5,O=C1c2ccccc2S(=O)(=O)N1Cc1nc2ccccc2s1,inconclusive: 1.3 nM
6,O=C(c1cccnc1)N1CCN(CCCc2ccccc2)CC1,inconclusive: 1.2 nM
7,C[C@H]1C[C@@H]2[C@H]3CCC4=CC(=O)C=C[C@@]4(C)[C@]3(Cl)[C@@H](Cl)C[C@]2(C)[C@]1(O)C(=O)COP(=O)(O)O,inactive
8,O=C(O)CSCCC(=O)Nc1ccc(F)cc1,inconclusive: 1.1 nM
9,NCCSS(=O)(=O)CCN,inactive
10,CCCn1c(SCc2ccccc2)nc2c1c(=O)[nH]c(=O)n2C,inconclusive: 1.7 nM
11,COc1cccc(-c2cncnc2NCCc2c[nH]c3ccc(OC)cc23)c1,inactive
12,COc1ccc(S(=O)(=O)N(C)CC(=O)Nc2ccccc2C(F)(F)F)cc1OC,inconclusive: 1.1 nM
13,CC1CCCCC1NC(=O)COc1ccc(-n2cnnn2)cc1 (stereo unspecified),inconclusive: 1.5 nM
14,O=S(=O)(c1ccc(-c2csc(-c3cccnc3)n2)cc1)N1CCCC1,inconclusive: 1.7 nM
15,CCOC(=O)c1csc(NC(=O)c2ccc(S(=O)(=O)N(CC)CC)cc2)n1,inconclusive: 1.4 nM
16,CCCCn1c(=N)n(CC(O)COc2ccc(C)cc2)c2ccccc21 (stereo unspecified),inconclusive: 1.2 nM
17,CC1(C)CC(=O)C2=C(C1)NC(Nc1nc3ccccc3o1)=NC21CCCC1,inconclusive: 1.7 nM
18,CCCCn1nc(CC(=O)O)c2ccccc2c1=O,inconclusive: 4.5 nM
19,CCN(CC)C(=O)CSc1nnc(-c2ccccc2)n1-c1ccccc1,inconclusive: 1.1 nM
20,c1ccc(/N=C2\N=C(Nc3ccccn3)c3ccccc32)nc1,inconclusive: 1.5 nM
21,CSc1ncnc2c1ncn2[C@@H]1O[C@@H](CO)[C@H](O)O[C@@H]1O,inactive
22,CCOC(=O)c1cnc(-n2nc(C)cc2C)nc1Nc1cccc(C(=O)O)c1,inconclusive: 1.2 nM

row,SMILES,max dye-equivalent concentration
1,Cn1c(=O)[nH]c(=O)c2c1nc(Br)n2Cc1ccccc1Cl,inconclusive: 3.3 nM
2,COC(=O)[C@@H]1C2CCC(C(=O)Nc3ccccc3)(CC2)[C@@H]1C(=O)OC,inconclusive: 1.1 nM
3,Cc1nn(-c2ccc(C(=O)Nc3nnc(C4CC4)s3)cc2)c(C)c1Cl,inconclusive: 1.4 nM
4,CCOC(=O)CNC(=O)CSc1nnc(-c2ccccc2OC)n1CC,inconclusive: 1.8 nM
5,C[C@@H]1CCN=C(N)S1,inactive
7,O=C(c1cc(-c2ccc3c(c2)OCO3)on1)N1CCN(c2ccccc2)CC1,inconclusive: 1.1 nM
8,Cc1ccc(-n2c(C)cc3c2CCCC3=O)cc1,inconclusive: 1.3 nM
9,OC[C@@H](O)CN1CCN(c2ccccc2)CC1,inconclusive: 1.3 nM
10,CO/N=C(\C(=O)N[C@@H]1C(=O)N2C(C(=O)O)=C(CSc3nc(=O)c(O)nn3C)CS[C@@H]12)c1csc(N)n1,inactive
11,Cc1cc(C)cc(OC(=O)N2CCOCC2)c1,inconclusive: 1.6 nM
12,C1CCC(c2nn3c(-c4n[nH]c5c4CCC5)nnc3s2)CC1,inconclusive: 1.8 nM
13,O=C(NCCCN1CCCC1=O)c1cncc(Br)c1,inconclusive: 1.4 nM
14,O=C1CCCc2nc(NCc3ccco3)ncc21,inconclusive: 2.1 nM
15,O=C(CCc1nc(-c2ccccc2F)no1)NC1CCCCCC1,inconclusive: 1.2 nM
16,COC(=O)[C@H](C)NC(=O)NCc1ccccc1F,inconclusive: 1.1 nM
17,COc1ccccc1NC(=O)C1=C(C)NC2=C(C(=O)CCC2)C1c1ccc(C)o1 (stereo unspecified),inconclusive: 1.1 nM
18,COc1ccccc1N1CCN(S(=O)(=O)c2cccc(F)c2)CC1,inconclusive: 1.5 nM
19,O=S(=O)(c1ccc(NCCc2c[nH]c3ccccc23)nc1)N1CCOCC1,inconclusive: 1.9 nM
20,O=C(c1ccccc1F)N1CCc2ccccc21,inconclusive: 1.5 nM
21,COc1ccc(-c2ccc(-c3noc(C4CCCCC4)n3)c(OC)n2)cc1,inconclusive: 1.7 nM
22,COc1cc(OC)c(C(=O)COc2ncnc3ccccc23)c(OC)c1,inconclusive: 1.3 nM

row,SMILES,max dye-equivalent concentration
1,Fc1cccc(Cl)c1/C=N\N=C1c2ccccc2-c2ccccc21,inactive
2,OC(CN1CCOCC1)CN(c1ccccc1)c1ccccc1 (stereo unspecified),inconclusive: 1.2 nM
3,O=C(O)CSc1nnc(CNc2ccc(Cl)cc2)n1Cc1ccccc1,inconclusive: 2.2 nM
4,COc1ccc(CN(C(=O)c2ccccc2OC)C2CCS(=O)(=O)C2)cc1 (stereo unspecified),inconclusive: 1.6 nM
5,O=C(CC1SCCNC1=O)Nc1cccc(Cl)c1 (stereo unspecified),inconclusive: 1.2 nM
6,O=C(Cc1ccccc1)N(c1ccc(F)cc1)C1C=CS(=O)(=O)C1 (stereo unspecified),inconclusive: 2.5 nM
7,O=C1NC(c2cccc([N+](=O)[O-])c2)=CCN1c1ccccc1O,inconclusive: 1.2 nM
8,[N-]=[N+]=CC(=O)CNC(=O)[C@@H](Cc1ccccc1)N1C(=O)c2ccccc2C1=O,inconclusive: 1.2 nM
9,CN(C)c1ncnc2ccc(-c3cccnc3)cc12,inactive
10,COc1ccc(C(=O)N2CCCC(c3ccccc3)C2)cc1 (stereo unspecified),inconclusive: 1.4 nM
11,COc1ccc(CNC(=O)c2cc3c(=O)n4ccccc4nc3n(Cc3ccco3)c2=N)cc1,inactive
12,CCOC(=O)N1CCN(S(=O)(=O)c2ccc3c(c2)SCC(=O)N3)CC1,inconclusive: 1.1 nM
13,O=C(COC(=O)CCc1c[nH]c(=O)[nH]1)Nc1ccccc1,inactive
14,COc1ccc(Br)cc1C1NC(=O)c2c(sc3c2CCN(C)C3)N1 (stereo unspecified),inconclusive: 1.2 nM
15,O=C(Nc1ccc2c(c1)oc1ccc(S(=O)(=O)N3CCCC3)cc12)C1CC1,inconclusive: 1.5 nM
16,O=C(O)[C@H]1CCCN(CCC=C(c2ccccc2)c2ccccc2)C1,inconclusive: 1.2 nM
17,CN(C)c1oc(COc2ccccc2F)nc1C#N,inconclusive: 1.7 nM
18,N#Cc1cccc(NC(=O)N2CC[C@@]3(CCCN(C(=O)c4cccc(F)c4)C3)C2)c1,inactive
19,Cc1ccc(-c2nnn(CC(=O)Nc3ccccc3-c3ccccc3)n2)c(-n2cnnn2)c1,inconclusive: 4.4 nM
20,CCCN(CC1CC1)c1nc(C)nc(Nc2c(Cl)cc(Cl)cc2Cl)c1Cl,inconclusive: 1.4 nM
21,CC1(CCc2ccc3c(c2)OCO3)NC(=O)c2ccccc2N1 (stereo unspecified),inconclusive: 1.5 nM
22,CCc1ccc(S(=O)(=O)NCc2cn3cccc(C)c3n2)s1,inconclusive: 1.3 nM

# 4 entries from above, as tab-separated lines.
row	SMILES	max dye-equivalent concentration
5	O=C(CC1SCCNC1=O)Nc1cccc(Cl)c1 (stereo unspecified)	inconclusive: 1.2 nM
6	O=C(Cc1ccccc1)N(c1ccc(F)cc1)C1C=CS(=O)(=O)C1 (stereo unspecified)	inconclusive: 2.5 nM
7	O=C1NC(c2cccc([N+](=O)[O-])c2)=CCN1c1ccccc1O	inconclusive: 1.2 nM
8	[N-]=[N+]=CC(=O)CNC(=O)[C@@H](Cc1ccccc1)N1C(=O)c2ccccc2C1=O	inconclusive: 1.2 nM

# Further records follow.

row,SMILES,max dye-equivalent concentration
1,CCC(=NC(C)c1ccccc1)c1c(O)n(C)c(=O)n(C)c1=O (stereo unspecified),inconclusive: 1.1 nM
2,Cc1cc(C)nc(N2CCN(c3nc(C)cc(C)n3)CC2)n1,inconclusive: 2.5 nM
3,COc1ccccc1-c1nccc(NCc2cccs2)n1,inactive
4,COc1ccc(C(NC(=O)c2ccco2)c2ccc(OC)c(OC)c2)cc1OC,inconclusive: 1.1 nM
5,COc1ccc(C)cc1NC(=O)CSc1nnc(-c2ccc(OC)c(OC)c2)n1N,inconclusive: 1.1 nM
6,CCOc1cc(-c2c(C#N)c(=O)[nH]c3c2c(C)nn3-c2ccc(F)cc2)ccc1O,inconclusive: 1.4 nM
7,O=C(NCc1cccs1)c1cnn2cccnc12,inconclusive: 2.6 nM
8,O=C(c1ccccc1)c1nc2ccccc2[nH]c1=O,inconclusive: 1.1 nM
9,CC(C)(C)OC(=O)NCC(=O)N1CCC(C(=O)O)CC1,inconclusive: 1.7 nM
10,CCOc1ccc(CNc2ccc(N3CCCC3)cc2)cc1,inconclusive: 1.8 nM
11,COC(=O)c1cc(NCc2ccccc2F)ccc1N1CCOCC1,inconclusive: 1.1 nM
12,Cc1cc(-c2nnc3n2N=C(c2ccc(-c4ccccc4)cc2)CS3)n[nH]1,inconclusive: 1.3 nM
13,CCCC1(C(=O)OCC)NC(c2ccc(N(C)C)cc2)C2C(=O)N(c3ccc(OCC)cc3)C(=O)C21 (stereo unspecified),inconclusive: 1.3 nM
14,O=C(c1ccc(F)cc1)C1CCN(C(=O)N2CCOCC2)CC1,inconclusive: 1.1 nM
15,COc1ccc(N2C(=O)CCC(C(=O)NCCN3CCOCC3)C2c2ccc(OC)c(OC)c2)cc1 (stereo unspecified),inconclusive: 1.1 nM
16,CCOC(=O)Cc1csc(NC(=O)CSc2nnc(-c3ccc(OC)cc3)n2C)n1,inconclusive: 1.1 nM
17,C[C@@H]1[C@H]2CC[C@@H]3[C@@H]4CC=C5C[C@@H](N(C)C)CC[C@]5(C)[C@@H]4CC[C@@]32CN1C,inactive
18,O=C1CCCc2c1cc(C(=O)Nc1ccc(Cl)cn1)c(=O)n2-c1ccccc1,inactive
19,C=CCSC1=C(C#N)C(c2ccccc2OCC)CC(=O)N1 (stereo unspecified),inconclusive: 1.1 nM
20,CC1CCN(C(c2ccc(N(C)C)cc2)c2nnnn2C(C)(C)C)CC1 (stereo unspecified),inconclusive: 1.3 nM
